Results taken from paper PMC6943125.

Biological target: T1, GST-DHX30 (human) (UniProt Q7L2E3)
T1 sequence: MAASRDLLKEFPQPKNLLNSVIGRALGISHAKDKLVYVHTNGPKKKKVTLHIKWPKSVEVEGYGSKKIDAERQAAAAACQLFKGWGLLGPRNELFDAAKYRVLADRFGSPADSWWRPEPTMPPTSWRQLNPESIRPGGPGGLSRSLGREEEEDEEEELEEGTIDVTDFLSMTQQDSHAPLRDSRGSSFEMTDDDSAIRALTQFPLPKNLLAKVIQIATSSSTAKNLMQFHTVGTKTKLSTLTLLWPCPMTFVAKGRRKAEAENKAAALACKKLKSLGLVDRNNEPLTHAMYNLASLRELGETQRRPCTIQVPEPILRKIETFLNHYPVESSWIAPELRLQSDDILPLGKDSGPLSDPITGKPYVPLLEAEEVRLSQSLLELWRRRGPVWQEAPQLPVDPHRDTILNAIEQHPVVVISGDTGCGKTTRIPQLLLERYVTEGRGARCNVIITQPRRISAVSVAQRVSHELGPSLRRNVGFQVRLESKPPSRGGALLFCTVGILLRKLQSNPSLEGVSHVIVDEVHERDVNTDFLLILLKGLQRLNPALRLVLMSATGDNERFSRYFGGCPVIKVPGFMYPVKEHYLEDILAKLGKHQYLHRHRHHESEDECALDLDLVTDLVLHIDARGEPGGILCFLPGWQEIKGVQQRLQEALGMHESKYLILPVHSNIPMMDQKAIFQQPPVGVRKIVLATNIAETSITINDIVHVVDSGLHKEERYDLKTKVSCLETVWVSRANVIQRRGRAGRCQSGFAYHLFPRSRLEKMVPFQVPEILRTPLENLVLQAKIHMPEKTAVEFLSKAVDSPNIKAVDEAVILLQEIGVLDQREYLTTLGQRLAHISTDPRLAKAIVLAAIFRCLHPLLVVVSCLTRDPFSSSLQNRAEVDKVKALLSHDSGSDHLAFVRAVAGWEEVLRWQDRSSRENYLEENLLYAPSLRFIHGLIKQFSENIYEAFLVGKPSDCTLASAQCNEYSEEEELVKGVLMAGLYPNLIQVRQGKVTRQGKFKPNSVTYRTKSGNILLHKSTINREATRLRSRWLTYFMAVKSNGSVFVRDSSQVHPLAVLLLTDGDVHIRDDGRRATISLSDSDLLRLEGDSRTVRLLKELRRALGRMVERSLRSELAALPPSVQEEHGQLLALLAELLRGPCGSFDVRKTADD
Experiment: pull-down

HA (hemagglutinin) of Ud virus (influenza A virus (Ud virus))
binding: no binding

These are yes or no findings as the source states them, for the method shown. Binding seen in cells or lysates may run through a third protein. Sequences can lack the tags named with a protein.
